Results from article doi:10.1101/2021.08.24.457482 (bioRxiv, 2021).
Read-outs that look alike come from different tables or passages of the source. Results are given in words; binding and its absence hold for the method and conditions named. For part of these data: In cells and extracts the contact can be indirect. Some entries that bind do so weakly or less than the wild type. For part of these data: Tags and fused reporters may be left off the sequences shown.

Amino acid sequences for entries named in this document (tags omitted). A change or cut given only in a name is not applied to a line headed by its entry. Residues count along the entry.
UniProt O14786, 22-923: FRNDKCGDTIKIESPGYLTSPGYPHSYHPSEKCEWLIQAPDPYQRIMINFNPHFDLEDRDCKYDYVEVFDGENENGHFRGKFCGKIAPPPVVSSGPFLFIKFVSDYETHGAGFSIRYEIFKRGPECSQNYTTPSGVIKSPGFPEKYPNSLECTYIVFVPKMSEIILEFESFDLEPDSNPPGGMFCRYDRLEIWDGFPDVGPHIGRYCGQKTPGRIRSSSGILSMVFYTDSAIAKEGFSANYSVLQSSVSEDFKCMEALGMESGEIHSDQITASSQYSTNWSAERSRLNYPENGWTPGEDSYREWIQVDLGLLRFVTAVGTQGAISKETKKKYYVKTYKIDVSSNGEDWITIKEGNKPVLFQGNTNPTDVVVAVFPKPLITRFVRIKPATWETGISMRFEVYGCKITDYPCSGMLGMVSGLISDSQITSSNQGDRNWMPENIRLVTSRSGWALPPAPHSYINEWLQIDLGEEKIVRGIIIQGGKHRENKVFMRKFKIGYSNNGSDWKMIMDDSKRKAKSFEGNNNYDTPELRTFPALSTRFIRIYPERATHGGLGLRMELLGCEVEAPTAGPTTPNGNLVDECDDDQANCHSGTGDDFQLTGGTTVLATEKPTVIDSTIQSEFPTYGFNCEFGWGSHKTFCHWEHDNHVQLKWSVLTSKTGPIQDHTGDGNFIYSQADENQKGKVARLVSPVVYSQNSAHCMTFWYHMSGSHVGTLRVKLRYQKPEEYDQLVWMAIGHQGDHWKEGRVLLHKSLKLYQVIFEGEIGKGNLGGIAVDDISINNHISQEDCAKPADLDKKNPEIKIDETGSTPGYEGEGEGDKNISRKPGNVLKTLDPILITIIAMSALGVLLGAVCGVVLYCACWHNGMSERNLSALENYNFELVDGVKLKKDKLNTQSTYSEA
UniProt Q92854, 22-734: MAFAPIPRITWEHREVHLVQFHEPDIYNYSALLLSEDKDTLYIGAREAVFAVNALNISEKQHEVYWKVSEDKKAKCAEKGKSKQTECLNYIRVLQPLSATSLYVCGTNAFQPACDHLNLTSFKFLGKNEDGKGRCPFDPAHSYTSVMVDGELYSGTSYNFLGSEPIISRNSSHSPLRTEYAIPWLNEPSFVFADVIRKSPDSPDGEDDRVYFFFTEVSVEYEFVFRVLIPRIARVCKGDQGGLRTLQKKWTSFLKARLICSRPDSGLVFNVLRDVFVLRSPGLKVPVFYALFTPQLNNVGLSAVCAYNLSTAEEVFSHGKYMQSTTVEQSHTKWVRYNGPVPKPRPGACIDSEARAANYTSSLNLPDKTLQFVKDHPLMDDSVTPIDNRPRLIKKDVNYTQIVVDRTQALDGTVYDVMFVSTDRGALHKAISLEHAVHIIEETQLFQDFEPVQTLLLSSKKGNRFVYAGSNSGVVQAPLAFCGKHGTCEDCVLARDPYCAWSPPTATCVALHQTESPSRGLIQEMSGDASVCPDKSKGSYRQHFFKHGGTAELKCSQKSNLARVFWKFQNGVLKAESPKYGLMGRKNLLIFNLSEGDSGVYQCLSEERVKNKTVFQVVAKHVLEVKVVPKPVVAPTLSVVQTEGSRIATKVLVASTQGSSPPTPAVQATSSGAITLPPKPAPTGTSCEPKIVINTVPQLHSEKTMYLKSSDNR
UniProt P29350, whole entry: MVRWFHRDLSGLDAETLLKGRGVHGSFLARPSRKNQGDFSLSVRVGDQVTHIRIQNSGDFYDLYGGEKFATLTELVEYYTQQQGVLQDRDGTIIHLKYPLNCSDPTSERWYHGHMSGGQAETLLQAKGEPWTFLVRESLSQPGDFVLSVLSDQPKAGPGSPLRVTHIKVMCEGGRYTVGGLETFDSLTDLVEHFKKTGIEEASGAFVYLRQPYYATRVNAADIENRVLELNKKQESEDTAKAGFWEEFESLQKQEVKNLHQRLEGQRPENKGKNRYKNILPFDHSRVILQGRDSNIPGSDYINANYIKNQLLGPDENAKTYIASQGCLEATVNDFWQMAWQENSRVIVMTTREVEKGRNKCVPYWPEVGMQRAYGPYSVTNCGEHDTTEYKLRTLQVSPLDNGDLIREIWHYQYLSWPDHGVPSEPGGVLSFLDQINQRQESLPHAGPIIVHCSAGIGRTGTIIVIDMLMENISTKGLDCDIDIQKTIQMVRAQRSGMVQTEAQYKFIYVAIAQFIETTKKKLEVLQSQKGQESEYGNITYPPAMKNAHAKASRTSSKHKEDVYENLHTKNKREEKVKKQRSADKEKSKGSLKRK

How the values were obtained:
[1] = biological target: T1, CD72 fused with a V5 epitope tag, expressed in U87MG-ΔNRP-1-CD72+ cells (human) (UniProt P21854); assay: alkaline phosphatase fusion binding to cells
T1 sequence: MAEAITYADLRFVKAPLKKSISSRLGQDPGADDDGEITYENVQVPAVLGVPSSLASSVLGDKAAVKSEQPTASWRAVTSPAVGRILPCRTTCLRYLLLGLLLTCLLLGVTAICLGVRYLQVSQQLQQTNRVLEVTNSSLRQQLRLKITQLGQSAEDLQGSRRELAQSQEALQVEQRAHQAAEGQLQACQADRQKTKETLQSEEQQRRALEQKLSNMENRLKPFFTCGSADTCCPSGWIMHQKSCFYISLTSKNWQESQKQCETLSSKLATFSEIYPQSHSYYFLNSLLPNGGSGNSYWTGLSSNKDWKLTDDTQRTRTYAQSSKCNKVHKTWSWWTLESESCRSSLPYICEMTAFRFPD

[2] = biological target: T2, CD72 expressed in BLCL-CD72+ cells (human) (UniProt P21854); assay: co-IP
T2 sequence: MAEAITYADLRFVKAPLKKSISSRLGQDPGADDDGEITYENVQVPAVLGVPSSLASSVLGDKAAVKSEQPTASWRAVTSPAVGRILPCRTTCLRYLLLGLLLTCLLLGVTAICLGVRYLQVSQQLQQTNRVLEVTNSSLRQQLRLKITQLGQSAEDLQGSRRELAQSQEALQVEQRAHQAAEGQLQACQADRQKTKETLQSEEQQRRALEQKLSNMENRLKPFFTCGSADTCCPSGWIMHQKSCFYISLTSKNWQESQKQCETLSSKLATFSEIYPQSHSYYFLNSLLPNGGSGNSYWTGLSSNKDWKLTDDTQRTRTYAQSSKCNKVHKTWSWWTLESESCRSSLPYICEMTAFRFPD

[3] = biological target: T1, CD72 fused with a V5 epitope tag, expressed in U87MG-ΔNRP-1-CD72+ cells (human); assay: co-IP
[4] = biological target: T1, CD72 fused with a V5 epitope tag, expressed in U87MG-ΔNRP-1-CD72+ cells (human); assay: alkaline phosphatase fusion binding to cells; remark: listed apart in the source
[5] = biological target: neuropilin-1 (NRP-1) on parental U87MG cells (human (endogenous in U87MG)) (UniProt O14786); assay: alkaline phosphatase fusion binding to cells
[6] = biological target: neuropilin-1 (NRP-1) on parental U87MG cells (human (endogenous in U87MG)) (UniProt O14786); assay: alkaline phosphatase fusion binding to cells; remark: listed apart in the source
[7] = biological target: T1, CD72 fused with a V5 epitope tag, expressed in U87MG-ΔNRP-1-CD72+ cells (human); assay: alkaline phosphatase fusion binding to cells; remark: listed apart in the source
[8] = biological target: neuropilin-1 (NRP-1) on parental U87MG cells (human (endogenous in U87MG)) (UniProt O14786); assay: alkaline phosphatase fusion binding to cells; remark: listed apart in the source

recombinant human sema4D protein (from UniProt Q92854) (ligand)
binding [1]: binds

SHP-1 (from UniProt P29350 1-595) (enzyme)
binding [2]: binds

B1: recombinant sema3A fused with 6xHistidine tag (Semaphorin3A) (ligand, UniProt Q14563 21-771)
chain: NYQNGKNNVPRLKLSYKEMLESNNVITFNGLANSSSYHTFLLDEERSRLYVGAKDHIFSFDLVNIKDFQKIVWPVSYTRRDECKWAGKDILKECANFIKVLKAYNQTHLYACGTGAFHPICTYIEIGHHPEDNIFKLENSHFENGRGKSPYDPKLLTASLLIDGELYSGTAADFMGRDFAIFRTLGHHHPIRTEQHDSRWLNDPKFISAHLISESDNPEDDKVYFFFRENAIDGEHSGKATHARIGQICKNDFGGHRSLVNKWTTFLKARLICSVPGPNGIDTHFDELQDVFLMNFKDPKNPVVYGVFTTSSNIFKGSAVCMYSMSDVRRVFLGPYAHRDGPNYQWVPYQGRVPYPRPGTCPSKTFGGFDSTKDLPDDVITFARSHPAMYNPVFPMNNRPIVIKTDVNYQFTQIVVDRVDAEDGQYDVMFIGTDVGTVLKVVSIPKETWYDLEEVLLEEMTVFREPTAISAMELSTKQQQLYIGSTAGVAQLPLHRCDIYGKACAECCLARDPYCAWDGSACSRYFPTAKRRTRRQDIRNGDPLTHCSDLHHDNHHGHSPEERIIYGVENSSTFLECSPKSQRALVYWQFQRRNEERKEEIRVDDHIIRTDQGLLLRSLQQKDSGNYLCHAVEHGFIQTLLKVTLEVIDTEHLEELLHKDDDGDGSKTKEMSNSMTPSQKVWYRDFMQLINHPNLNTMDEFCEQVWKRDRKQRRQRPGHTPGNSNKWKHLQENKKGRNRRTHEFERAPRSV
binding [3]: binds

B2: Sema3A fused in frame with alkaline phosphatase (sema3A-AP) (ligand)
chain: NYQNGKNNVPRLKLSYKEMLESNNVITFNGLANSSSYHTFLLDEERSRLYVGAKDHIFSFDLVNIKDFQKIVWPVSYTRRDECKWAGKDILKECANFIKVLKAYNQTHLYACGTGAFHPICTYIEIGHHPEDNIFKLENSHFENGRGKSPYDPKLLTASLLIDGELYSGTAADFMGRDFAIFRTLGHHHPIRTEQHDSRWLNDPKFISAHLISESDNPEDDKVYFFFRENAIDGEHSGKATHARIGQICKNDFGGHRSLVNKWTTFLKARLICSVPGPNGIDTHFDELQDVFLMNFKDPKNPVVYGVFTTSSNIFKGSAVCMYSMSDVRRVFLGPYAHRDGPNYQWVPYQGRVPYPRPGTCPSKTFGGFDSTKDLPDDVITFARSHPAMYNPVFPMNNRPIVIKTDVNYQFTQIVVDRVDAEDGQYDVMFIGTDVGTVLKVVSIPKETWYDLEEVLLEEMTVFREPTAISAMELSTKQQQLYIGSTAGVAQLPLHRCDIYGKACAECCLARDPYCAWDGSACSRYFPTAKRRTRRQDIRNGDPLTHCSDLHHDNHHGHSPEERIIYGVENSSTFLECSPKSQRALVYWQFQRRNEERKEEIRVDDHIIRTDQGLLLRSLQQKDSGNYLCHAVEHGFIQTLLKVTLEVIDTEHLEELLHKDDDGDGSKTKEMSNSMTPSQKVWYRDFMQLINHPNLNTMDEFCEQVWKRDRKQRRQRPGHTPGNSNKWKHLQENKKGRNRRTHEFERAPRSV
binding [4]: binds | binding [5]: binds | binding [1]: binds | binding [6]: binds | binding [7]: binds | binding [8]: binds
